# According to PubChem BioAssay AID504834 (National Center for Advancing Translational Sciences (NCATS), 2011):
# Out of some 320,000 compounds screened, about 22,000 (6.9%) were called active. Inconclusive means that the source gave no clear call. Such entries were picked first, then a sample of the others. The call rests on the fitted dose curve; in most records, active means well fitted inhibition curve with a large enough effect; inconclusive means small, poorly fitted or top-dose-only effect, or another doubt; inactive means no such curve, though single readings can be large or run the other way. Where the call is inconclusive, the potency comes from a doubtful curve fit.
# Assay: Primary qHTS for delayed death inhibitors of the malarial parasite plastid, 96 hour incubation
# Conditions: P. falciparum luciferase reporter growth; series mostly up to 28.7 µM
# Procedure, shortened: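 P. falciparum expressing integrated firefly luciferase grown in erythrocytes (2% hematocrit, 0.05% parasitemia final) with compounds for 96 hours at 37 C, 5% CO2. Growth inhibition read as loss of luminescence after adding luciferase detection reagent.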
# Potency means the concentration at half of the fitted maximal effect.
row,SMILES,Potency
1,CCc1c(C)c2c(C)[nH]nc2oc1=O,"inconclusive: 0.0586 µM [inhibitor, full curve, poor fit]"
2,Cc1ccc(S(=O)(=O)NCCCNS(C)(=O)=O)cc1,inactive
3,COc1cc(Cl)c(C)cc1NC(=S)NN,"inconclusive: 11.7 µM [inhibitor, partial curve]"
4,CCOc1ccccc1NS(=O)(=O)c1ccc2oc(=O)ccc2c1,inactive
5,COc1ccc(NC(=O)c2ccc(NC(=O)CN(C)CC(=O)Nc3c(C)cccc3C)cc2)cc1,"inconclusive: 7.38 µM [inhibitor, partial curve]"
6,CCOC(=O)CN(C(=O)c1snc(C(N)=O)c1N)C(C(=O)NC1CCCCC1)c1ccc(F)cc1 (stereo not drawn),"inconclusive: 11.7 µM [inhibitor, single point]"
7,O=C(CN1C(=O)NC(c2ccccc2)(c2ccccc2)C1=O)NCc1cccs1,inactive
8,CC(=O)NNC(=O)c1sc(=S)n2c1[nH]c(=O)c1sccc12,"inconclusive: 0.522 µM [inhibitor, full curve, poor fit]"
9,Cc1ccc(C(=O)N2N=C3c4ccccc4S(=O)(=O)N3[C@H]2N(C)C)cc1,"inconclusive: 1.47 µM [inhibitor, partial curve, poor fit]"
10,CCOc1cc(CNc2ccc(OC)cc2)cc(Br)c1OCC(=O)NC(C)(C)C,active: 9.28 µM
11,COc1ccc(NC(=O)CSc2nnc(CC(=O)Nc3ccc(F)cc3)n2C)cc1,inactive
12,Clc1ccc(-c2ccc(CN3CCCCC3)o2)cc1,"inconclusive: 20.8 µM [inhibitor, partial curve, poor fit]"
13,Cc1ccc(C2(C)NC(=O)N(CC(=O)N3c4ccccc4NC(=O)CC3C)C2=O)cc1 (stereo not drawn),"inconclusive: 2.62 µM [inhibitor, full curve, poor fit]"
14,Cc1ccc2cc(CN(Cc3ccco3)C(=O)NCc3ccccc3)c(=O)[nH]c2c1C,active: 11.7 µM
15,FC(F)(F)c1ccc2c(c1)n(Cc1ccccc1)c1[n+]2CCCCC1,"inconclusive: 0.37 µM [inhibitor, full curve, poor fit]"
16,COc1ccc2c(c1)C=CC1(O2)N(CCO)c2ccccc2C1(C)C (stereo not drawn),"inconclusive: 18.5 µM [inhibitor, single point]"
17,C#CCOCCOCCOCCNc1nc(N2CCN(C(=O)[C@H]([C@@H](C)CC)n3cc(CCCCN)nn3)CC2)nc(N2CCN(C(=O)[C@H](C)n3cc(CCC(=O)O)nn3)CC2)n1,"inconclusive: 9.28 µM [inhibitor, partial curve, poor fit]"
18,Cc1nnc(NC(=O)c2ccc3c(c2)C(=O)N(CCC(C)C)C3=O)s1,inactive
19,Cc1cc(C)c(OCCCCNCc2ccccc2)c(Cl)c1,"inconclusive: 1.17 µM [inhibitor, full curve, poor fit]"
20,CCN(CC)c1nc2c(c(=O)[nH]c(=O)n2C)n1Cc1ccccc1,inactive
21,CC(C)(C)CN1CCC(Oc2cccc(C(=O)N3CCC[C@H]3CO)c2)CC1,inactive
22,Cc1cc(C)c(C(=O)C(C)OC(=O)Cc2n[nH]c(=O)c3ccccc23)cc1C (stereo not drawn),"inconclusive: 10.4 µM [inhibitor, single point]"

# Rewritten bar-delimited: entries from further up
row | SMILES | Potency
20 | CCN(CC)c1nc2c(c(=O)[nH]c(=O)n2C)n1Cc1ccccc1 | inactive
21 | CC(C)(C)CN1CCC(Oc2cccc(C(=O)N3CCC[C@H]3CO)c2)CC1 | inactive
22 | Cc1cc(C)c(C(=O)C(C)OC(=O)Cc2n[nH]c(=O)c3ccccc23)cc1C (stereo not drawn) | inconclusive: 10.4 µM [inhibitor, single point]

# (list continues)

row,SMILES,Potency
1,Cn1cc(CNCc2cn(C)nc2-c2ccc(C3CCCCC3)cc2)cn1,inactive
2,CCOC(=O)c1c(C)[nH]c(C)c1S(=O)(=O)NCCCN1CCOCC1,"inconclusive: 18.5 µM [inhibitor, single point]"
3,CCCCN(C(=O)c1ccc(S(=O)(=O)N2CCC(C)CC2)cc1)C1CCS(=O)(=O)C1 (stereo not drawn),"inconclusive: 18.5 µM [inhibitor, partial curve, poor fit]"
4,COc1ccc(OC)c(-c2csc(NC(=O)CSCC(=O)Nc3cc(C)on3)n2)c1,"inconclusive: 18.5 µM [inhibitor, single point]"
5,COc1ccc(C(=O)Nc2cnc(NC(=O)c3cccs3)cc2C)cc1,"inconclusive: 5.86 µM [inhibitor, partial curve]"
6,CCOc1ccc(Cl)cc1S(=O)(=O)N1CCC(C(=O)N2CCCC2)CC1,"inconclusive: 18.5 µM [inhibitor, single point]"
7,COc1cccc(NC(=O)Cn2c(-c3cncs3)nc3ccccc32)c1,"inconclusive: 10.4 µM [inhibitor, partial curve, poor fit]"
8,O=c1[nH]oc2c1CCNC2,"inconclusive: 16.9 µM [inhibitor, single point]"
9,Cc1sc2nc(C3CC3)nc(SCC(=O)N3c4ccccc4CC3C)c2c1C (stereo not drawn),inactive
10,CCOC(=O)C1CCN(c2c(Nc3ccc(C)c(C)c3)c(=O)c2=O)CC1,"inconclusive: 4.65 µM [inhibitor, partial curve]"
11,Cn1nc(-c2ccc(Cl)cc2)c2cc(C(=O)NCCCN3CCOCC3)sc21,"inconclusive: 3.29 µM [inhibitor, full curve]"
12,CC1CCN(C(=O)/C(=C\c2ccco2)NC(=O)c2ccccc2)CC1,"inconclusive: 14.7 µM [inhibitor, partial curve, poor fit]"
13,CCCN1CCc2c(sc(NC(=O)C3CCN(S(=O)(=O)c4cccs4)CC3)c2C(N)=O)C1,"inconclusive: 10.4 µM [inhibitor, single point]"
14,O=C(NCc1cccc(Cl)c1)C1CCC(=O)N(CC2CCCCC2)C1 (stereo not drawn),active: 14.7 µM
15,O=C(O)c1cccc(N/N=C/c2cn(-c3ccccc3)nc2-c2cccs2)c1,inactive
16,COC(=O)Cc1cc(=O)oc2cc(O)ccc12,inactive
17,O=C(Nc1ccc2c(c1)OCO2)C1CC(=O)N(c2cccc(Cl)c2)C1 (stereo not drawn),inactive
18,Cc1cc(C)cc(C(=O)/C=C2\NC(=O)CS2)c1,"inconclusive: 1.17 µM [inhibitor, partial curve]"
19,COc1ccc(-n2nc(C(=O)NCC(=O)N3CCN(C)CC3)c3ccccc3c2=O)cc1,inactive
20,CCOC(=O)N1CCC(NC(=O)c2ccc(CO)c(C(=O)NC3CCN(C(=O)OCC)CC3)c2)CC1,"inconclusive: 0.415 µM [inhibitor, partial curve, poor fit]"
21,O=C(c1c(O)c2ccccc2oc1=O)C1CCC1,"inconclusive: 10.4 µM [inhibitor, single point]"
